Measurements published in PubChem BioAssay AID504834 (National Center for Advancing Translational Sciences (NCATS), 2011).
The campaign covered roughly 320,000 compounds. About 22,000 (6.9%) were called active. Inconclusive means that the source gave no clear call. Such entries were picked first, then a sample of the others. Calls come from the whole dose curve; as a rule, active = well fitted inhibition curve with a large enough effect; inconclusive = small, poorly fitted or top-dose-only effect, or another doubt; inactive = no such curve, though single readings can be large or run the other way. Potencies beside an inconclusive call are fits to weak or partial responses and may not hold up.

Experiment: Primary qHTS for delayed death inhibitors of the malarial parasite plastid, 96 hour incubation
Details: P. falciparum luciferase reporter growth; series mostly up to 28.7 µM
How it was run: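 Two parasite generations (96 h, 37 C, 5% CO2) of compound exposure in infected erythrocytes (0.05% parasitemia, 2% hematocrit). Luciferase-reporter P. falciparum; decreased luminescence indicates inhibited growth, aimed at apicoplast-acting delayed death.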
Potency is the fitted concentration of half-maximal effect.

SMILES	Potency
O=C(c1ccc2noc(-c3ccccc3)c2c1)N1CCN(c2ccccc2)CC1	inconclusive: 9.28 µM [inhibitor, partial curve]
COc1ccc(OC)c(NC(=O)NCCN2CCN(c3ccccc3)CC2)c1	inconclusive: 13.1 µM [inhibitor, single point]
c1ccc(-c2ccccc2OCCCN2CCCC2)cc1	inconclusive: 9.28 µM [inhibitor, partial curve]
Cc1ccc(CNc2oc(-c3ccco3)nc2S(=O)(=O)c2ccccc2)cc1	inconclusive: 3.7 µM [inhibitor, single point]
CCCCn1c(SCc2nc(N)nc(Nc3ccccc3C)n2)nc2ccccc2c1=O	inconclusive: 10.4 µM [inhibitor, partial curve, poor fit]
CN1CCN(S(=O)(=O)c2ccc(NC(=O)COc3ccccc3Cl)cc2)CC1	inconclusive: 18.5 µM [inhibitor, single point]
COc1cc2ccccc2cc1C(=O)Nc1nnc(-c2ccncc2)o1	inactive
O=C(COc1ccc(-c2ccccc2)cc1)NNC(=O)Nc1ccc(F)cc1F	inconclusive: 18.5 µM [inhibitor, single point]
Cc1sc2nc(CN3CCCCC3)nc(Nc3ccc4c(c3)OCCO4)c2c1C	inconclusive: 11.7 µM [inhibitor, partial curve, poor fit]
C=CCn1c(SCC#N)nc2c(c1=O)C(C)(C)Cc1ccccc1-2	inconclusive: 11.7 µM [inhibitor, single point]
O=C1CCC(/C=C/c2ccccc2)=NN1Cc1ccc(F)cc1	inactive
Cc1ccccc1CC(=O)NC1CCN(C)CC1	inconclusive: 18.5 µM [inhibitor, single point]
N/C(=N\c1nc(CSc2ccccn2)cc(=O)[nH]1)Nc1ccc(Cl)cc1Cl	inconclusive: 13.1 µM [inhibitor, single point]
O=C(COc1cc2oc(=O)c3c(c2cc1Cl)CCCC3)NCc1cccnc1	inconclusive: 13.1 µM [inhibitor, single point]
Cc1cc(-c2nnc(CCC(=O)NC(C)c3cccc4ccccc34)o2)no1 (stereo unspecified)	active: 11.7 µM
CCN(Cc1ccc(OC)c(F)c1)C(C)C(=O)Nc1ccc(S(=O)(=O)N2CCCC2)cc1 (stereo unspecified)	inconclusive: 11.7 µM [inhibitor, partial curve, poor fit]
S=C(NCCc1ccc(Cl)cc1)NCc1ccccc1	inconclusive: 14.7 µM [inhibitor, partial curve]
CN(CC(=O)OCC(=O)NCc1ccccc1)S(=O)(=O)c1ccc(Cl)cc1	inactive
O=C(Nc1ccc(Cl)cc1)Nc1cc(S(=O)(=O)N2CCOCC2)ccc1N1CCCC1	inconclusive: 18.5 µM [inhibitor, single point]
CCc1sc(C(=O)Nc2cc(S(=O)(=O)N3CCOCC3)ccc2OC)cc1C	inconclusive: 18.5 µM [inhibitor, single point]
COc1cc(CCC(=O)Nc2ccc(Cl)c(C(F)(F)F)c2)cc(OC)c1OC	inconclusive: 18.5 µM [inhibitor, single point]

Among those listed so far, these have a thiophene ring, fused or not.
SMILES	Potency
Cc1sc2nc(CN3CCCCC3)nc(Nc3ccc4c(c3)OCCO4)c2c1C	inconclusive: 11.7 µM [inhibitor, partial curve, poor fit]
CCc1sc(C(=O)Nc2cc(S(=O)(=O)N3CCOCC3)ccc2OC)cc1C	inconclusive: 18.5 µM [inhibitor, single point]

The listing continues:

SMILES	Potency
CC1(C)Cc2nc3oc4c(=O)n(CC(=O)Nc5ccc(Cl)cc5)cnc4c3cc2CO1	inconclusive: 11.7 µM [inhibitor, single point]
O=C(c1noc2c1CSc1ccccc1-2)N1CCN(c2ccc(Cl)cc2)CC1	inconclusive: 10.4 µM [inhibitor, single point]
CCOc1ccc(-n2c(-c3ccc(Cl)cc3)c[n+]3c2SCC3)cc1	active: 0.0465 µM
CCOc1ccccc1NC(=O)CN1C(=O)NC(Cc2c[nH]c3ccccc23)C1=O (stereo unspecified)	inconclusive: 18.5 µM [inhibitor, single point]
COCc1cc(=O)[nH]c(Sc2c(-c3ccccc3)c3ccc(Cl)cc3[nH]c2=O)n1	inactive
NC(=O)c1ccc(NC(=O)COc2cccc3c2CCNC3=O)cc1	inconclusive: 0.0828 µM [inhibitor, full curve, poor fit]
CSCCC(NC(=O)c1cccc([N+](=O)[O-])c1)c1nc2ccccc2[nH]1 (stereo unspecified)	inconclusive: 4.15 µM [inhibitor, partial curve, poor fit]
Cc1cc(C)c(S(=O)(=O)N2CCOC2CNC(=O)C(=O)NCc2cccnc2)c(C)c1 (stereo unspecified)	inconclusive: 16.5 µM [inhibitor, single point]
CC(=O)c1ccccc1C(=O)N1CCCC(CNC(=O)c2ccccc2Cl)C1 (stereo unspecified)	inconclusive: 10.4 µM [inhibitor, partial curve, poor fit]
O=C1[C@H]2[C@@H](C3CC3)N3C(=O)CN(Cc4ccccn4)C(=O)[C@@]3(Cc3ccccc3)[C@H]2C(=O)N1c1ccccc1	inconclusive: 0.828 µM [inhibitor, partial curve, poor fit]
CC1(C(=O)NCc2cccnc2)CCC(=O)N1CCc1ccccc1 (stereo unspecified)	inactive
O=C(CSc1nnc(-c2ccccc2Br)o1)N1CCOCC1	inconclusive: 7.38 µM [inhibitor, partial curve]
COc1ccc(C2CC(c3cccs3)=NN2c2nc(-c3ccccc3)cs2)cc1OC (stereo unspecified)	inconclusive: 4.65 µM [inhibitor, partial curve]
CC1=NN(C(=O)COc2ccc(C)c(C)c2)C(O)(c2ccccc2)C1 (stereo unspecified)	inactive
O=C(CCC(=O)Nc1ccc(F)cc1)N/N=C/c1ccc(Br)cc1	active: 3.7 µM
Cn1cc(C(c2ccccc2OCC(=O)O)c2cn(C)c3ccccc23)c2ccccc21	active: 5.22 µM
C=C(C)CN(CC)C(=O)CC1C(=O)NCCN1Cc1c(F)cccc1Cl (stereo unspecified)	inconclusive: 0.415 µM [inhibitor, full curve, poor fit]
COC(=O)c1nc(NC(=S)NC(=O)c2cccs2)sc1C	inconclusive: 14.7 µM [inhibitor, single point]
CC(NC1CCN(Cc2ccccc2)CC1)c1ccc(F)cc1 (stereo unspecified)	inconclusive: 1.17 µM [inhibitor, single point]
CCc1cccc(CC)c1N(COC)C(=O)Cn1c(C(C)O)nc2ccccc21 (stereo unspecified)	active: 9.28 µM
